# Several values for one entry are separate records, joined by “and”; a condition that tells them apart may be missing. Equal entries are not always repeated. The campaign covered roughly 400,000 compounds. About 5,500 (1.4%) were called active. The shares of active, inactive and inconclusive entries below differ from those in the screen. Calls come from the whole dose curve; as a rule, active = well fitted cell-killing curve with a large enough effect; inconclusive = small, poorly fitted or top-dose-only effect, or effect the other way; inactive = flat fitted curve, though single readings scatter. A potency beside an inconclusive call is a rough fit, not a confirmed value.
# Assay: qHTS assay for MDR1-selective chemotherapeutics: Primary screen using the parental adenocarcinoma cell KB-3-1; note: nearly all actives have a fitted effect of over 60% in size
# Details: KB-3-1 viability, CellTiter-Glo ATP luminescence, 72 h; activity change, negative = cytotoxic: at 46.1 µM (top of the series)
# Method in brief: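 Screening of KB-3-1 cells (DMEM, 10% FBS, phenol-red free) ran from lowest to highest compound concentration; after 72 h at 37 °C viability was read luminescently and curves fitted.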
# % is set by controls: 0 for no effect and ±100 for the full control effect; potency is the fitted concentration of half-maximal effect.
SMILES,Potency,"activity change, negative = cytotoxic"
O=C(N/N=C\c1cc(Cl)ccc1O)c1ccc(S(=O)(=O)N2CCCCC2)cc1,"inconclusive: 6.51 µM [cytotoxic, full curve]",–
NC(=O)C(C(=O)/C=C/c1ccc(Cl)cc1)=C1SCCS1,"inconclusive: 6.51 µM [cytotoxic, full curve]",–
Cc1ccc(C)c(NC(=O)COC(=O)c2ccc3c(c2)OCCO3)c1,inactive,–
O=C(Cc1ccc(S(=O)(=O)N2CCOCC2)s1)Nc1ccc(Br)c(C(F)(F)F)c1,"inconclusive: 20.6 µM [cytotoxic, single point]",–
O=C(NCc1cccnc1)NC1(C(F)(F)F)Oc2ccc(Cl)cc2O1 (stereo not drawn),"inconclusive: 23.1 µM [cytotoxic, single point]",–
O=C(c1cc2cc(Br)ccc2s1)N1CCOCC1,"inconclusive: 0.184 µM [rising, full curve]",–
CCN(CC)c1ccc(-c2n[nH]c(=S)n2-c2ccccc2)cc1,active: 13 µM,–
CCNc1nc(NC(C)(C)C)nc(N2CCCC2)n1,"inconclusive: 29.1 µM [cytotoxic, single point]",–
CN(CCOc1ccccc1)C(=O)c1cc(S(=O)(=O)N2CCOCC2)ccc1Cl,"inconclusive: 11.6 µM [cytotoxic, partial curve, poor fit]",–
CCOc1ccc(C(=O)Nc2ccc(NC(=S)NC(=O)CC)cc2)cc1Cl,"inconclusive: 16.4 µM [rising, single point]",–
O=C1OC(c2ccccc2)=N/C1=C/c1cccc(OC(=O)c2cccs2)c1,inactive,–
Oc1ccc(-c2cnc(-c3ccc(O)cc3)nc2)cc1,"inconclusive: 1.46 µM [cytotoxic, full curve, poor fit]",–
CN(CC(=O)Nc1ccc(Cl)c(C(F)(F)F)c1)C(=O)c1ccc(OCC2CCCO2)cc1 (stereo not drawn),"inconclusive: 29.1 µM [cytotoxic, single point]",–
CCc1cccc(C)c1NC(=O)C1CCN(S(=O)(=O)Cc2ccccc2)CC1,inactive,–
CCn1cc(C(=O)NCCCOC)c(=O)c2cc(S(=O)(=O)N(C)C3CCCCC3)ccc21,"inconclusive: 29.1 µM [cytotoxic, single point]",–
C=CC[C@H](CC(=O)N(CCO)Cc1ccccc1)C(=O)NC[C@H](OC(=O)[C@@H](CC=C)CC(=O)OC(C)(C)C)c1ccccc1,"inconclusive: 29.1 µM [cytotoxic, single point]",–
O=C(CN(C1CC1)S(=O)(=O)c1ccc(S(=O)(=O)N2CCCCCC2)cc1)Nc1ccccc1,inactive,–
Cc1ccc(NC(=S)N/N=C/c2ccc([N+](=O)[O-])s2)cc1,"inconclusive: 4.11 µM [cytotoxic, full curve, poor fit]",–
COc1ccc(-n2c(CCc3ccccc3)nnc2SCC(=O)c2ccc(Cl)cc2)cc1,"inconclusive: 20.6 µM [cytotoxic, single point]",–
COC(=O)c1sccc1-n1cccc1C(=O)C(=O)Nc1ccc(F)cc1,inactive,–
O=C(N/N=C/c1ccc(OC(=O)c2ccc(Br)cc2)cc1)c1ccncc1,inactive,–
COc1cc(C(=S)N2CCOCC2)cc(OC)c1OC,"inconclusive: 0.517 µM [rising, full curve, poor fit]",–
O=C(NNC(=O)c1cc(-c2cccnc2)nc2ccccc12)Nc1ccc(Cl)cc1,"inconclusive: 29.1 µM [cytotoxic, single point]",–
COc1ccc(OC)c(C2C3=C(N=c4s/c(=C\c5cccc(O)c5)c(=O)n42)c2ccccc2CC3)c1 (stereo not drawn),"inconclusive: 29.1 µM [cytotoxic, single point]",–
CCC1CCCCN1C(=O)c1cc(COc2ccc3ncccc3c2)on1 (stereo not drawn),active: 4.11 µM,–

SMILES,Potency,"activity change, negative = cytotoxic"
CC(CCc1ccccc1)NC(=O)Cn1cccc1C(=O)c1ccccc1 (stereo not drawn),inactive,–
CCc1cccc(C)c1NC(=O)CN1C(=O)C2(SCC(=O)N2c2cc(C)cc(C)c2)c2ccccc21 (stereo not drawn),inactive,–
COc1ccc(S(=O)(=O)N2c3ccccc3OCC2C)cc1 (stereo not drawn),active: 1.16 µM,–
CCc1cc(C(=O)N2CCCC(C(=O)c3ccc(Oc4ccccc4)cc3)C2)n(C)n1 (stereo not drawn),"inconclusive: 23.1 µM [cytotoxic, single point]",–
N#Cc1c(F)cccc1N1CCC(C#N)CC1,"inconclusive: 18.4 µM [cytotoxic, partial curve, poor fit]",–
COc1ccccc1NC(=O)N(Cc1ccco1)Cc1cc2ccc(C)c(C)c2[nH]c1=O,active: 5.8 µM,–
CC(C)CC(=O)NC(NC(=S)Nc1cccc2cccnc12)C(Cl)(Cl)Cl (stereo not drawn),"inconclusive: 29.1 µM [cytotoxic, single point]",–
COc1ccc(NC(=O)CN2CCCC2c2cccs2)cc1S(=O)(=O)N1CCCCC1 (stereo not drawn),–,inconclusive: -98.3%
Cc1cc(C)n(-c2ccc(C(=O)Nc3sccc3C(N)=O)cc2)n1,"inconclusive: 20.6 µM [cytotoxic, single point]",–
Cc1cccc(NC(=O)c2sc(-n3nc(C)c(CCC(C)C)c3C)nc2C)c1C,inactive,–
CC1CCN(CCCNC(=O)c2ccc3c(Cl)c4c(nc3c2)CCCC4)CC1,"inconclusive: 29.1 µM [cytotoxic, single point]",–
c1cncc(CNc2nc(-c3cccnc3)nc3ccccc23)c1,inactive,–
COc1ccc2cc(CNCCOCCOCCNCc3ccc4cc(OC)ccc4c3)ccc2c1,active: 7.31 µM,–
CSc1ccccc1C(=O)N1CCc2ccc(NC(=O)c3ccccn3)cc2C1,"inconclusive: 20.6 µM [cytotoxic, single point]",–
COc1cc(/C=C/C(=O)c2ccc(O)cc2)ccc1OCC#N,active: 6.51 µM,–
O=C(NCCOc1ccc(F)cc1)C1CCC(=O)N(CC2CCCCC2)C1 (stereo not drawn),inactive,–
O=S(=O)(Nc1ccc2c(c1)OCCO2)c1cccc2cccnc12,inactive,–
O=C(CSc1nnc(-c2ccco2)n1-c1ccccc1)N1CCOCC1,inactive,–
NC(=O)C1CCN(CCS(=O)(=O)c2ccc(Cl)cc2)CC1,inactive,–
Cc1ccsc1-c1nc(CSCC(=O)N2CCN(c3ccccc3)CC2)c(C)o1,"inconclusive: 29.1 µM [cytotoxic, partial curve, poor fit]",–
Cc1ccc(C)n1-n1cnc2scc(-c3cccs3)c2c1=O,inactive,–
COc1ccccc1C(=O)N1CCN(c2ccc(N3CCOCC3)nn2)CC1,"inconclusive: 29.1 µM [rising, single point]",–
CCc1ccccc1NC(=O)Cn1nnc(C(=O)NCc2cccs2)c1N,"inconclusive: 4.61 µM [cytotoxic, full curve, poor fit] and active: 9.2 µM",–
Oc1ccc(Cl)cc1-c1cc(-c2ccccc2Cl)[nH]n1,"inconclusive: 29.1 µM [cytotoxic, single point]",–
Cn1nc(C(C)(C)C)cc1C(=O)N1CCCCC1c1cc(C(=O)Nc2ccc(F)c(Cl)c2)no1 (stereo not drawn),"inconclusive: 29.1 µM [cytotoxic, single point]",–

SMILES,Potency,"activity change, negative = cytotoxic"
CCN(CC1CCCO1)C(=O)c1cc(COc2cc(C)c(Cl)c(C)c2)on1 (stereo not drawn),inactive,–
COc1cc(NC(=O)c2cc(-c3ccc(Cl)c(Cl)c3)on2)cc(OC)c1OC,inactive,–
CCCC(C)C(=O)Nc1nc(C)c(-c2csc(Nc3ccc(Cl)cc3)n2)s1 (stereo not drawn),active: 8.2 µM,–
O=[N+]([O-])c1cc(Cl)cc(/C=N\Nc2ccccn2)c1O,"inconclusive: 1.46 µM [cytotoxic, full curve, poor fit]",–
CCC(/C=C1\Sc2ccc(OC)cc2N1CCO)=C\c1sc2ccc(OC)cc2[n+]1CCO,active: 2.91 µM,–
c1ccc(-n2c(SCc3nc(-c4cccs4)no3)nnc2-c2ccco2)cc1,inactive,–
Cn1ncc2c(Nc3cccc(Cl)c3)nc(Nc3cccc(Cl)c3)nc21,"inconclusive: 29.1 µM [cytotoxic, single point]",–
Cc1c(C)n(CC(O)CSc2ccccc2)c2ccccc12 (stereo not drawn),inactive,–
O=C(CN1C(=O)C2C3C=CC(C3)C2C1=O)NCCc1ccccc1Cl (stereo not drawn),"inconclusive: 2.24 µM [rising, partial curve, poor fit]",–
CCCCCCCCCCCCCCCC(O)C[N+](C)(C)CCO (stereo not drawn),"inconclusive: 18.4 µM [cytotoxic, single point]",–
CCOc1ccc(Nc2oc(-c3ccc(COc4ccccc4C)o3)nc2C#N)cc1,"inconclusive: 2.59 µM [cytotoxic, full curve]",–
Cc1cc(C(F)(F)F)n2nc(C)c(-c3ccc(Cl)cc3)c2n1,"inconclusive: 29.1 µM [cytotoxic, single point]",–
COc1ccc(CNn2c(-c3cccs3)nc3ccccc3c2=O)cc1OC,inactive,–
COc1cc([N+](=O)[O-])ccc1NC(=O)COC(=O)c1c[nH]c(=O)[nH]c1=O,inactive,–
COc1ccccc1N(CC(=O)NC(C)(C)C)C(=O)C1CSC(=O)C1 (stereo not drawn),inactive,–
Cc1ccc(NC(=O)CCN2C(=O)NC3(CCCC3)C2=O)c(C)c1,inactive,–
COc1ccc(OC)c(Nc2cc(C)nc3ccccc23)c1,"inconclusive: 20.6 µM [cytotoxic, single point]",–
COc1ccc(-c2csc(NC(CO)c3nc4ccccc4n3Cc3ccc(C)cc3)n2)cc1 (stereo not drawn),"inconclusive: 29.1 µM [cytotoxic, single point]",–
O=C(COc1cc(Cl)ccc1Cl)N1CCNC1=O,inactive,–
COc1ccc(OC)c(S(=O)(=O)Nc2cc(Cl)cc(Cl)c2)c1,inactive,–
CCOc1ccc2[nH]c3c(N4CCN(c5ccccn5)CC4)ncnc3c2c1,"inconclusive: 20 µM [cytotoxic, single point]",–
O=c1/c(=C\c2cccc(O)c2)sc2nc(-c3ccccc3)c(-c3ccccc3)n12,inactive,–
O=C(NC1CCCCC1)C(c1ccc(F)cc1)N(CCCN1CCOCC1)C(=O)c1ccc(CN2CCOCC2)o1 (stereo not drawn),–,inconclusive: 9.35%

# Some values from above.
# Value for COc1ccc(OC)c(Nc2cc(C)nc3ccccc23)c1 under Potency: inconclusive: 20.6 µM [cytotoxic, single point]
# Value for O=C(NC1CCCCC1)C(c1ccc(F)cc1)N(CCCN1CCOCC1)C(=O)c1ccc(CN2CCOCC2)o1 (stereo not drawn) under activity change, negative = cytotoxic: inconclusive: 9.35%
# Value for Cc1ccc(NC(=O)CCN2C(=O)NC3(CCCC3)C2=O)c(C)c1 under Potency: inactive
# Value for O=[N+]([O-])c1cc(Cl)cc(/C=N\Nc2ccccn2)c1O under Potency: inconclusive: 1.46 µM [cytotoxic, full curve, poor fit]

# Reference: PubChem BioAssay AID1347075 (National Center for Advancing Translational Sciences (NCATS), 2019)
